Experimental data as given in PubChem BioAssay AID2685 (National Center for Advancing Translational Sciences (NCATS), 2010).
The campaign covered roughly 320,000 compounds. About 2,100 (0.66%) were called active. Inconclusive means that the source gave no clear call. Such entries were picked first, then a sample of the others. The call rests on the fitted dose curve; in most records, active means well fitted inhibition curve with a large enough effect in the signal ratio, with a control signal flat (not every such curve was filed as active); inconclusive means small, poorly fitted or top-dose-only effect, or effect the other way, or a change in a side signal; inactive means flat fitted curve, though single readings scatter; the % refers to the signal ratio. Where the call is inconclusive, the potency comes from a doubtful curve fit.

Experiment: qHTS Assay for Lipid Storage Modulators in Drosophila S3 Cells
Conditions: BODIPY lipid droplet fluorescence, 18-24 h, cells fed with added oleic acid; lipid storage change, negative = inhibition: at 46.1 µM (top of the series) unless noted
How it was run: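 Drosophila S3 cells loaded with oleic acid (400 uM, as added) and compounds at several concentrations; lipid droplets imaged by 488-nm laser-scanning cytometry, 500–530 nm intensity and object ratio to cell channel. Percent activity normalized to 20 uM Triacsin C.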
On the % scale 0 is the no-effect control and ±100 the full control effect; potency means the concentration at half of the fitted maximal effect.

SMILES	lipid storage change, negative = inhibition	Potency	outcome
COc1ccc2c(CC(=O)N3CCc4cc(OC)c(OC)cc4C3)coc2c1	inconclusive: 30.3%	–	–
COc1cc(NC(=O)Cc2ccccc2)ccc1NC(=O)c1ccccc1	–	active: 23.1 µM	–
COc1ccc2oc(C(=O)OCC(=O)NC3CC3)c(C)c2c1	inconclusive: 7.58%	–	–
O=c1[nH][nH]c(-c2ccccc2)c1C=Nc1ccccc1	inconclusive: 10.7%	–	–
CCC(CC)=C(C#N)C(=O)NC1CCCCC1	inconclusive: 8.84%	–	–
COC(=O)CN1C(=S)N(c2ccc(OC)cc2)C(=O)/C1=C/c1ccc(N2CCOCC2)cc1	–	inconclusive: 17.8 µM [falling, single point]	–
Cc1ncc(CO)c(/C=N/NC(=S)Nc2cccc(Cl)c2)c1O	inconclusive: -12.4%	–	–
Cc1ccc(CN2C3CCCC2CC(NC(=O)c2ccc(F)cc2)C3)cc1 (stereo unspecified)	inconclusive: -48.9%	–	–
Cc1ccc(C)c(-c2csc(NC(=O)c3c(C)noc3C)n2)c1	–	inconclusive: 5.8 µM [falling, single point]	–
Cc1cc(NC(=O)Cn2nnc3sc4c(c3c2=O)CCC(C(C)(C)C)C4)no1 (stereo unspecified)	inconclusive: -45.3%	–	–
Cc1nn(CC(=O)Nc2ccc3c(c2)nc(CCN2CCCCC2)n3C)c(=O)c2ccccc12	inconclusive: 0.723%	–	–
CC1(C)Cc2nc3scc(NC(=O)c4ccccc4)c3cc2CO1	inconclusive: -3.99%	–	–
FC(F)(F)c1cccc(CNC2CCN(Cc3ccccc3)CC2)c1	inconclusive: 70.9%	–	–
COc1cccc(NC(=O)C2CCCN(c3ncnc4c3nc3n4CCCCC3)C2)c1 (stereo unspecified)	–	inconclusive: 0.58 µM [activator, single point]	–
COc1cccc(CNC(=O)C2CCN(S(=O)(=O)N3CCC(C)CC3)CC2)c1	inconclusive: -25.3%	–	–
CCOc1nonc1C(=N)/C(C(C)=O)=C(\C)O	–	inconclusive: 4.11 µM [falling, partial curve]	–
COc1cc(/C=N/Nc2ccccc2)ccc1O	inconclusive: -33.2%	–	–
O=C(Oc1oc(-c2ccco2)nc1C=Nc1ccccc1)c1ccoc1	inconclusive: 33%	–	–
CCOc1ccc(-c2cc(N3C(=O)Nc4ccccc4N3O)on2)cc1	–	active: 23.1 µM	–
Cc1ccc(OCCn2nnc3ccccc32)cc1C	inconclusive: -72.1%	–	–
CCN(CC(=O)Nc1ccc(N2CCOCC2)cc1)C(=O)Cc1ccccc1	–	inconclusive: 0.461 µM [falling, single point]	–

Molecules shown so far with fluorine:
SMILES	lipid storage change, negative = inhibition	Potency	outcome
Cc1ccc(CN2C3CCCC2CC(NC(=O)c2ccc(F)cc2)C3)cc1 (stereo unspecified)	inconclusive: -48.9%	–	–
FC(F)(F)c1cccc(CNC2CCN(Cc3ccccc3)CC2)c1	inconclusive: 70.9%	–	–

(next part)

SMILES	lipid storage change, negative = inhibition	Potency	outcome
CCOC(=O)CCn1cc(F)c(=O)n(Cc2ccccc2)c1=O	–	–	inactive [at 46.1 µM]
COc1ccc(C)cc1S(=O)(=O)N(C)CC(=O)NC1CCCC1	inconclusive: 17.6%	–	–
COc1ccccc1N1CCN(C(=S)Nc2ccc(S(=O)(=O)N3CCOCC3)cc2)CC1	–	inconclusive: 29.1 µM [cytotoxic, single point]	–
CN(CC(=O)Nc1ccccc1Cl)C(=O)COc1cccc2c1OC(C)(C)C2	inconclusive: 16.9%	–	–
COC(=O)c1ccc(CSc2nc3c(cnn3-c3ccc(F)cc3)c(=O)[nH]2)o1	inconclusive: -6.84%	–	–
O=C(CNC(=O)c1cccnc1)N/N=C/c1ccc(O)cc1O	inconclusive: 10.6%	–	–
O=C(Nc1cccnc1)c1ccc(Cl)cc1[N+](=O)[O-]	inconclusive: 1.62%	–	–
O=C(NCCN1CCOCC1)c1ccc2c(c1)N(Cc1ccc(Cl)cc1)CCS2	inconclusive: 18.8%	–	–
Cc1cc(C)cc(-n2c(C)cc(C(=O)CSc3nnnn3C)c2C)c1	–	inconclusive: 0.13 µM [falling, full curve, poor fit]	–
O=C(N/N=C/c1ccc([N+](=O)[O-])cc1)c1cccnc1	inconclusive: 0.946%	–	–
N#CCSc1nnc(-c2cccnc2)n1-c1ccccc1	inconclusive: 24.7%	–	–
Cn1c2ccsc2c2cnn(Cc3ccc(F)cc3)c(=O)c21	inconclusive: 1.82%	–	–
CC(C)OCCCNC(=O)c1cn(C)c2ccc(S(=O)(=O)N3CCCC3)cc2c1=O	–	inconclusive: 5.8 µM [falling, full curve]	–
O=C(Nc1cccc(NC(=O)c2ccccc2Cl)c1)c1ccco1	inconclusive: 33.1%	–	–
Cn1c(C(=O)NCCCN2CCCCCC2)cc2c(=O)n(C)c3ccccc3c21	inconclusive: 30.4%	–	–
CC(Oc1ccc(Cl)cc1Cl)C(=O)Nc1cccc(O)c1 (stereo unspecified)	–	inconclusive: 29.1 µM [cytotoxic, single point]	–
COc1ccc(CC(=O)NNC(=O)Cc2ccc(OC)cc2)cc1	inconclusive: -19.2%	–	–
O=C(Nc1ccccc1N1CCCCC1)C1CCN(S(=O)(=O)c2cccc(C(F)(F)F)c2)CC1	inconclusive: 6.41%	–	–
Cc1nnsc1C(=O)Nc1ccc(S(=O)(=O)N2CCCCC2)cc1	inconclusive: 24.9%	–	–
COc1cc(OC)c(C(=O)OCC(=O)Nc2ccccc2Cl)cc1OC	inconclusive: 0.753%	–	–
COc1ccc(S(=O)(=O)N2CCCCC2)cc1NC(=O)c1ccc2ccccc2n1	–	inconclusive: 1.46 µM [activator, partial curve]	–

SMILES	lipid storage change, negative = inhibition	Potency	outcome
COc1cc(/C=C2\N=C(c3c(-c4ccccc4)noc3C)OC2=O)ccc1OC(C)=O	inconclusive: 5.19%	–	–
Cc1ccc(NC(=O)NCCCCc2ccccc2)cc1	inconclusive: -27.3%	–	–
CSc1cccc(NC(=O)C(C)NS(=O)(=O)c2ccc(F)cc2)c1 (stereo unspecified)	–	–	inactive [at 46.1 µM]
CCc1ccc(NC(=O)c2cccc(NC3=NC4CS(=O)(=O)CC4S3)c2)cc1 (stereo unspecified)	inconclusive: 5.79%	–	–
Cc1ccc(Nc2cc(C)c3ccc(O)cc3n2)cc1C	inconclusive: 5.25%	–	–
O=C(COc1ccc(Br)cc1)NCCNC(=O)c1cccnc1	–	inconclusive: 12.6 µM [activator, single point]	–
CC1CC(C)(C)CC2(C1)NC(=O)N(CC(=O)Nc1cc([N+](=O)[O-])ccc1F)C2=O (stereo unspecified)	–	inconclusive: 9.2 µM [activator, partial curve]	–
COc1ccc(NC(=O)N2CCCC2C(=O)NCc2cccs2)cc1 (stereo unspecified)	–	inconclusive: 0.58 µM [falling, single point]	–
COc1ccc(OC)c(NC(=O)CCN2CC(C)OC(C)C2)c1 (stereo unspecified)	inconclusive: 11.7%	–	–
CSc1nsc(SCC(=O)N2CCCc3ccccc32)n1	inconclusive: 32.4%	–	–
O=C(CN(C(=O)c1csnn1)c1ccc(F)c(Cl)c1)NC1CCCC1	inconclusive: -5.71%	–	–
CCOc1cc(/C=N/NC(=O)COc2ccc(C)cc2)ccc1OC(=O)c1cccs1	inconclusive: -48.9%	–	–
O=C1/C(=C/c2ccccc2F)SC(=S)N1CC(=O)N1CCCCC1c1cccnc1 (stereo unspecified)	–	active: 7.31 µM	–
COc1cc(CNCCNCC(C)O)ccc1OCc1ccc(Cl)nc1 (stereo unspecified)	inconclusive: -11.6%	–	–
O=C(NC(=S)N1CCN(c2ccccc2)CC1)c1ccc(S(=O)(=O)N2CCOCC2)cc1	inconclusive: -23.7%	–	–
Cc1ccccc1C1C(=O)c2ccccc2C1=O	–	active: 20.6 µM	–
O=C(O)C1CCN(C(=O)c2ccccc2N2C(=O)[C@@H]3Cc4c([nH]c5ccccc45)C(c4cccc(Cl)c4)N3C2=O)CC1 (stereo partly specified)	inconclusive: 9.4%	–	–
CCn1c(C)nc2cc(C(=O)NNS(=O)(=O)c3ccccc3F)ccc21	inconclusive: -2.94%	–	–
C#CCSc1nc(Cc2ccc(Cl)cc2)nc2ccccc12	–	inconclusive: 29.1 µM [rising, single point]	–
Cc1[nH]c2ccc(C(=O)NC3CCC(C)CC3)cc2c1C (stereo unspecified)	inconclusive: -24.4%	–	–
Cc1ccc(C)c(CN2C(=O)c3ccccc3S(=O)c3ccc(C(=O)N4CCN(c5ccccn5)CC4)cc32)c1 (stereo unspecified)	inconclusive: 23.8%	–	–

SMILES	lipid storage change, negative = inhibition	Potency	outcome
COc1ccc(Cn2c(=O)sc3ccccc32)cc1OC	inconclusive: -48%	–	–
CCC1Oc2ccc(C)cc2N(CC(=O)NCc2ccccc2OC)C1=O (stereo unspecified)	–	inconclusive: 29.1 µM [cytotoxic, single point]	–
Cc1nc2ccc(F)cc2cc1C(=O)NCC1CCCO1 (stereo unspecified)	inconclusive: 39.9%	–	–
Cc1ccc(CN(C)C(=O)c2cccc(S(=O)(=O)N3CCCC3)c2)cc1	inconclusive: 2.07%	–	–
O=C(CN1C(=O)C(=O)N(C2CCCC2)C1=O)Nc1ccc(Cl)cc1C(F)(F)F	inconclusive: -2.96%	–	–
CCN(CC)S(=O)(=O)c1ccc(NC2CCN(Cc3ccccc3)CC2)nc1	inconclusive: 45.4%	–	–
CC(C)(OC(=O)c1ccc(C(F)(F)F)cc1)c1cc2ccccc2c(=O)o1	–	inconclusive: 9.2 µM [falling, single point]	–
COc1cc(CNC(C)C23CC4CC(CC(C4)C2)C3)cc(OC)c1OC (stereo unspecified)	inconclusive: 15.3%	–	–
Cc1[nH]c(=S)c(C#N)c(C)c1C(=O)Nc1ccccc1	inconclusive: -26.6%	–	–
O=C1CC(NC(=O)C(F)(F)F)=NN1c1ccccc1	inconclusive: -37.9% [at 9.22 µM]	–	–
COc1ccc(C(CNC(=O)c2cc(C)on2)N(C)C)cc1 (stereo unspecified)	–	inconclusive: 6.51 µM [activator, single point]	–
O=C(CCn1c(=O)c2cccn2c2ccccc21)Nc1ccc(F)cc1	inconclusive: -21.4%	–	–
COc1ccccc1-n1cnnc1SCC(=O)N1CCOCC1	–	active: 0.0146 µM	–
COc1cc2c(cc1OC)C(c1cc(Br)c(OC)c(OC)c1)CC(=O)N2 (stereo unspecified)	inconclusive: -45.4%	–	–
Cc1nnc(SCc2ccc(Cl)c(Cl)c2)s1	inconclusive: 9.59%	–	–
COc1ccccc1C(=O)C1CCCN(C(=O)CN2CCCCC2=O)C1 (stereo unspecified)	inconclusive: -19.7%	–	–
COc1cccc(CNC(=O)c2ccc(NC3=NC4CS(=O)(=O)CC4S3)cc2)c1 (stereo unspecified)	inconclusive: -7.48%	–	–
O=S(=O)(Cc1ccccc1)N1CCn2c(nc3ccccc32)C1	–	inconclusive: 0.231 µM [activator, partial curve]	–

Sorted by number of heavy atoms (ascending): three of the compounds above
SMILES	lipid storage change, negative = inhibition	Potency	outcome
O=C1CC(NC(=O)C(F)(F)F)=NN1c1ccccc1	inconclusive: -37.9% [at 9.22 µM]	–	–
Cc1nc2ccc(F)cc2cc1C(=O)NCC1CCCO1 (stereo unspecified)	inconclusive: 39.9%	–	–
O=C(Nc1ccccc1N1CCCCC1)C1CCN(S(=O)(=O)c2cccc(C(F)(F)F)c2)CC1	inconclusive: 6.41%	–	–
